# Results: US20200060994A1, “METHODS OF TREATING PSYCHIATRIC STRESS DISORDERS” (Yeda Research and Development Co. Ltd., priority 2017, published 2020)
# Tested on: importin α5 KO mice
# Experiment: Open field (OF) test, importin α5 KO mice
# Format: in vivo, mouse
# Conditions: FG-7142 5 mg/kg intraperitoneally, OF after 30 min
# Method: All drugs were administered by intraperitoneal injection (I.P.). […] A. CNS Drug Rev.
smiles,measurement,value
CNC(=O)c1cc2c(cn1)[nH]c1ccccc12 [FG-7142],average movement velocity,without affecting; also recorded: does not perturb

# Entries after “also recorded” stand apart in the source; their conditions may differ.
